The whole screen tested about 6,900 compounds, of which fewer than 10 were called active. The call rests on the fitted dose curve; in most records, active means well fitted curve in the direction sought with a large enough effect; inconclusive means small, poorly fitted or top-dose-only effect, or another doubt; inactive means no such curve, though single readings can be large or run the other way. Some of the results follow.
What follows are molecules tested against Metallo-beta-lactamase type 2 (Klebsiella pneumoniae) (UniProt C7C422) (assay: qHTS to identify inhibitors of the New Delhi Metallo-beta-lactamase (NDM): primary screen against the NCATS Gemini Collection). Conditions: NDM-1 enzyme, meropenem hydrolysis, absorbance 300 nm; at 38.4 µM (top of the series) unless noted.
Method in brief: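 Meropenem hydrolysis (50 uM final) by 2 nM NDM-1 read as 300 nm absorbance after 30 min, following >30 min compound–enzyme preincubation in HEPES pH 7.0 with 1 uM ZnSO4 and 0.01% Tween20.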
Further: % of control where 0% means no effect.

Chains of the proteins cited; added tags and fusions are not shown. Lines headed by an entry give the natural chain unless they say otherwise; changes in a name come on top.
UniProt C7C422: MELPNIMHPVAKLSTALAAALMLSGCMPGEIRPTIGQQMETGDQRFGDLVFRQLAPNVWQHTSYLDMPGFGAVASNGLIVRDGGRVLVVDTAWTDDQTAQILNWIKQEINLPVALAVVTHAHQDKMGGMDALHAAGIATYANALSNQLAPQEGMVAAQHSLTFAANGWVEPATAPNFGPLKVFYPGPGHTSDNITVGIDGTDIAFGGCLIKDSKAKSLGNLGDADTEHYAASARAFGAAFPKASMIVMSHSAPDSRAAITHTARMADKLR

Activity % (negative = inhibition), inactive:
CCC(C(=O)N1CCCn2nc(C(=O)Nc3ccccc3)cc2C1)n1cccn1 (configuration not stated) 10.2%, CC(C)N1CC(C(=O)NCCc2ccc(Cl)cc2)NC1=O (configuration not stated) 9.73% [at 57.5 µM], Cc1cnn(CCC(=O)N2CCCn3ccnc3C2c2cnn(C)c2)c1 (configuration not stated) 0.21%, O=C(CCSCc1ccccc1)N1C[C@@H](CN2CCOCC2)[C@@H](CO)C1 -3.89%, CC(=O)N1CCN(Cc2nnc(C(=O)N3CCC[C@@H]3c3cccc(F)c3)n2-c2ccccc2)CC1 2.15%, Cc1noc(C)c1CN1CCN(C(=O)C2CCCN2)CC1 (configuration not stated) 66.7%, COc1ccc(O)cc1CN1CCC(Cc2ccc(C(=O)O)cc2)C1 (configuration not stated) 3.25%, CCS(=O)(=O)N[C@@H]1CN(Cc2ccccc2)C[C@H]1CN(C)C 4.86%, O=C(Cc1cccn1-c1ccc(F)cc1)N1CCCCC1 1.33%, O=C(NCCc1ccncc1)C1CN(C(=O)C2CCCCC2)CC12CCOCC2 (configuration not stated) -8.79%, O=C1NCCCc2[nH]c(-c3cnn(-c4ccc(F)cc4)c3)nc21 23%, Cc1cccc(C(=O)N2CC(N(C)Cc3cccnc3)C2)c1 3.58%, CC(=O)N1CCC([C@@H]2CN(Cc3ccc(C)s3)C[C@H]2CO)CC1 -11.6%, Cc1cnc(CN2CC3(CCCN(C(=O)c4ccc(C)s4)C3)CCC2=O)cn1 (configuration not stated) -0.0078%, CN1C(=O)CCCCC1C(=O)NCC1CCCCC1 (configuration not stated) 48.3%, COc1ccc(-c2nc(C)nc3c2CCC3)c2ccc(C)nc12 6.9%, COc1ccc(NC(=O)N[C@H]2CO[C@H]3[C@@H]2OC[C@@H]3n2nnnc2-c2ccccc2)cc1 -10.4% [at 57.5 µM], COCCNC(=O)C1CCC(=O)N1C1CCNCC1 (configuration not stated) -1.62%, O=C(CCc1nc2ccccc2s1)N1CCC(c2noc(C3CC3)n2)C1 (configuration not stated) 9.26%, Cc1ccc(-c2cc(O)c3c(c2)CNCCO3)cc1 0.339%, COCC(=O)NC1CCC12CCN(Cc1ccc(C)o1)CC2 (configuration not stated) 1.04%, COc1ccccc1OCc1cc(C(=O)N2CCCCCCCC2)n[nH]1 3.12%, CCc1noc(-c2cn(C3CCCN(C(=O)c4ccc(C(C)(C)C)cc4)C3)nn2)n1 (configuration not stated) 0.239%, Cc1cnc(CC2CCN(S(=O)(=O)c3cn(C)cn3)C2)n1Cc1ccccc1 (configuration not stated) -7.95%, NC(=O)COc1cccc(CN2CCN(c3ccc(F)cc3F)CC2)c1 3.18%, Cc1ccccc1N1Cc2c(NC3CCCCCC3)ncnc2N(C)CC1=O 4.82%, COc1cccc(N2C(=O)NC(=NC3CCCC3)C23CCN(Cc2ccccc2)C3)c1 (configuration not stated) -0.863%, CCC(C(=O)N1CCC2(CCC(=O)N(Cc3ccccn3)C2)CC1)n1cccn1 (configuration not stated) 1.86%, O=S(=O)(NC[C@@H]1CCNC[C@H]1O)c1ccc(OC(F)(F)F)cc1 6.51%, Cc1nc(CCNC(=O)[C@H]2CCC[C@H](O)C2)nc2c1CCC2 0.624%, O=C1CC(c2ccccc2)N(C(=O)CNC(=O)c2n[nH]c3ccccc23)CCCCCCN1 (configuration not stated) -1.24%, Cc1nonc1OCCn1ccnc1-c1cn(C2CCNCC2)nn1 3.42%, CCn1ccn2c(-c3ccccc3)nc(C)c2c1=O 10.1%, CN(C)C(=O)N1CCCn2nc(CNC(=O)C(=O)c3ccco3)cc2C1 7.71%, C=CCN1CCN(C(=O)[C@@]23CCCC[C@H]2N(CCC(C)C)C(=O)CC3)CC1 -1.97%, Cc1ccc(-c2noc([C@@H]3Cc4nc[nH]c4CN3Cc3cccs3)n2)cc1 29.3% [at 57.5 µM], O=C(CCCc1ccccc1)N1CCCCCC1c1nc(C2CC2)no1 (configuration not stated) -5.5%, Cn1cncc1CNC(=O)c1nc(-c2cccc(N3CCOCC3)c2)cc2c1ccn2C 19.7% [at 57.5 µM], O=C(N[C@@H]1CN(Cc2c[nH]c3ccccc23)C[C@H]1CO)c1ccccc1 0.0707%, CC(C)c1cc(CN2CCC(N3CCC(C(=O)NCc4ccccn4)CC3)CC2)[nH]n1 -1.33%, Cc1ccc(CN2CC(Oc3cccc(C(=O)N4CCOCC4)c3)C2)s1 -2.35%, Cc1cccc(-c2ncc(CN(CCC(N)=O)Cc3ccccc3)cn2)c1 -0.301%, COc1ccc(OCC2CN(CC3CC3)[S+](=O)([O-])c3cnccc3O2)cc1 (configuration not stated) 2.03% [at 16.1 µM], CC1CCN(CCNC(=O)c2cc3cn(C(C)C)cc3s2)CC1 43.3%, CN1CC(C(=O)NCc2cccs2)NC1=O (configuration not stated) -3.67% [at 57.5 µM], Cc1ccc([S+](=O)([O-])N2CC3(Cc4ccccc4N([S+](C)(=O)[O-])C3)C2)cc1 5%, COc1ccc(C(=O)N2CCCC2c2nc(CCOc3cccc(C)c3)no2)cn1 (configuration not stated) -1.73%, COc1ccc(CN2CCN(c3nc4ccccc4o3)CC2CCO)c(F)c1 (configuration not stated) 6.59%, O=C(COc1ccc(F)cc1)N1CCCN(c2cc(-c3ccc(Br)cc3)[nH]n2)CC1 1.52%, Cc1ccc(CN2CCC3(CC2)CCN(Cc2ccco2)CC3CO)s1 (configuration not stated) 7.76%, O=C1COc2ccc(-c3cccc(O)c3)nc2CN1Cc1ccc(C(F)(F)F)cc1 4.39% [at 57.5 µM], CCOc1ccc(C(=O)N2CCC(n3cc(-c4nc(CC)no4)nn3)C2)cc1 (configuration not stated) 9.07%, Cc1cc(Cl)ccc1OCC(=O)N1CC(CO)C2(CCNCC2)C1 (configuration not stated) 1.76%, O=C(NCC1CCOCC1)Nc1c(F)cccc1F -3.66%, Cn1ccc(C(=O)N2CC3ON=C(C(=O)NCCc4ccc(Cl)cc4)C3C2)n1 (configuration not stated) -0.156%, Cn1cc(-c2cc(=O)c3ccnc(NC4CCOCC4)c3o2)cn1 21.4% [at 57.5 µM], CC1(C(=O)N2CCCC(CCc3ccc(F)c(F)c3)C2)CC1 (configuration not stated) -2.26%, O=C(CCc1nc2ccc(Cl)cc2[nH]1)N1CCc2c(nc3cc(-c4ccccc4)[nH]n3c2=O)C1 55.4%, O=C(NCc1ccco1)C1CCc2nc(N3CCN(C(=O)C4CCC4)CC3)sc2C1 (configuration not stated) -0.684%, O=C1CCN(Cc2c[nH]c3ccccc23)CCCC(C(=O)NCc2ccccc2)CCN1 (configuration not stated) 10.4%, Cc1nc(N2CCC(C(=O)NC3CCC(C)CC3)CC2)cc(C(F)(F)F)n1 (configuration not stated) 19.7%, N#Cc1cccc(C(=O)NCc2nnc3ccc(-c4ccc(F)cc4)nn23)c1 2.12%, CC(C)CCCC1CN(C(=O)c2c(O)cccc2O)CCO1 (configuration not stated) 7.14%, CC(C)(C)CC(=O)N1CCC2(CC1)N(c1ccccc1)C(=O)CS2(=O)=O -0.685%, COC(=O)C1=C(C)N=C2SC=C(CC(=O)NCCCN3CCCC3=O)N2C1c1ccccc1 (configuration not stated) 1.2%, CCn1ccc(C(=O)N2CC3CC(C2)[C@H]2CCCC(=O)N2C3)n1 (some centres not stated) -6.47%, Cc1ccccc1Cn1nc2n(c1=O)CCCCC2 -2.25%, O=C(NCc1cccc(C(F)(F)F)c1)C1(CCO)CC12CCN(c1ncccn1)CC2 (configuration not stated) -9.97%, O=S(=O)(C1CC1)N1CCn2c(nnc2-c2cncc(Br)c2)C1 0.116%, CC(=O)N1CCN(C(=O)c2ccc3oc(-c4ccccn4)nc3c2)CC1 39.4%, O=C1CCCCC(CNC(=O)c2cccc(F)c2)N1 (configuration not stated) -10.6%, CCCOc1ccccc1C(C)Nc1nc(-c2cccnc2)nc2c1CNC2 (configuration not stated) -5.05%, O=C(NC1CCCCC1)O[C@@H]1CO[C@H]2[C@@H]1OC[C@@H]2NS(=O)(=O)c1ccc(Cl)cc1 -2.4%, Cc1nocc1C(=O)N1C[C@@H](CO)[C@H](c2ccccn2)C1 29.9%, COCCN(C)C[C@H]1C[C@@H](CO)CN(C(=O)c2ccc(C)c(Cl)c2)C1 2.42%, O=C(c1cnc2n1CCN(CCc1ccccc1)CC2)N1CCC(c2ccccc2)CC1 -10.2% [at 57.5 µM], COc1ccc(S(=O)(=O)N[C@H]2C[C@H]3C(=O)NC[C@@H](CCC(=O)NCc4ccccc4)N3C2)cc1 13.4%, O=C(c1ccc(=O)[nH]n1)N1CCc2ncnc(N3CCOCC3)c2CC1 5.99%, O=C1NCCCCCCN(C(=O)c2cc(C3CC3)[nH]n2)[C@H]2CCCC[C@@H]12 10.4%, COCC(c1ccccn1)N(C)Cc1cn(-c2ccccc2)nn1 (configuration not stated) -3.43%, O=C(NCc1ccc(Cl)cc1)c1cc2n(n1)CC(c1ccc3c(c1)OCO3)OC2 (configuration not stated) -1.91%, CC(C)c1ccc(-n2cc(CN3CCCC(O)(CN(C)C)C3)cn2)cc1 (configuration not stated) -1.42%, CN1CCN([C@H]2CCN(C(=O)COCc3ccccc3)C[C@H]2CCCO)CC1 1.92%, Cc1nc(CN2Cc3nc(OCc4ccc(F)cc4)ccc3OCC2=O)cs1 14.4% [at 57.5 µM], Cc1ccccc1C(=O)N1CCC(C(=O)N2CCC(c3nc4ncccc4[nH]3)CC2)C1 (configuration not stated) 3.09%, Cc1cnc(C2CCOCC2)n1C1CCCN(S(=O)(=O)c2ccccc2)C1 (configuration not stated) -2.37%, CN(C)c1ccc2ncc(Nc3cc(F)cc(N4CCOCC4)c3)n2n1 14.6% [at 57.5 µM]
